According to patent US20190338026A1 (University of Texas, published 2019):
Changes are numbered by the printed parent chain. Results are given in words; binding and its absence hold for the method and conditions named. Some entries that bind do so weakly or less than the wild type. For some of these results: Tags and fused reporters may be left off the sequences shown.

T1: recombinant LAIR1 (human, UniProt Q6GTX8 22-165, limits assumed)
T1 construct: also called LAIR1 (Octet analyte)
T1 chain: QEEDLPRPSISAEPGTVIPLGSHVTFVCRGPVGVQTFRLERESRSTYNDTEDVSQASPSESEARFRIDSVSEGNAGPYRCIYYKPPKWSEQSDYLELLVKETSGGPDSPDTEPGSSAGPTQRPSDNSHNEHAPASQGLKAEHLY

T2: human LAIR1 extracellular domain (ECD) protein with 6 HIS tag at the C-terminus (human) (UniProt Q6GTX8)
T2 sequence: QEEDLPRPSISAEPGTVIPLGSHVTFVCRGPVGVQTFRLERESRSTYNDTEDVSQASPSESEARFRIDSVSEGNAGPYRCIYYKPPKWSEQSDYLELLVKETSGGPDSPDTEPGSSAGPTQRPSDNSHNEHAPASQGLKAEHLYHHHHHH

B1: LA-259-2 (antibody, V domains shown)
VH: QSVKESGGRLVTPGTPLTLTCTASGFSLYKYNIQWVRQAPGKGLEYIGASTYAGYTYYASWAKGRVTISRTSTTVDLKMTSPTTEDTATYFCARHIDGDYSGYALWGPGTLVTISS
VL: ELVMTQTPASVSAAVGGTVTIKCQASQSIGTWFAWYQQKPGQSPKLLIYGPSKLASGVPPRFKGSGSGTEFTLTISDLECDDAATYYCQSNGGSISNGWGSFGGGTEVVVK
notes: Rabbit monoclonal IgG
B2: LA-121 (antibody, V domains shown)
VH: EQSVEESGGRLVTPGTPLTLTCTASGFSLYKYNIQWVRQAPGKGLEYIGASTYAGYTYYASWAIGRVTISRTSTTVDLKMTSPTTEDTATYFCARHIDGDYSGYALWGPGTLVTISS
VL: ELDLTQTPASVSAAVGGTVTIKCQASQSIDTWFGWYQQKPGQSPKLLIYGASKLASGVPPRFKGSGSGTEFTLTISDLECADAATYYCQNTYYGVRYLGGAFGGGTEVEIK
notes: Rabbit monoclonal IgG
B3: LA-258-2 (antibody, V domains shown)
VH: QSVKESGGDLVKPEGSLTLTCKASGFSFSNSYYMCWVRQAPGKGLEWIACIYTGSTSGTYYASWVNGRFTISKTPSTTVTLQMTSLTVADTATYFCSRKLTNFNGAYLDLWGPGTLVTISS
VL: ELVMTQTPSSVEAAVGGTVTIKCQASQSIYSYLAWYQQKPGQPPKVLIYKASTLASGVPSRFKGSGSGTDFTLTISDLECADAATYYCQANNGGSDNNFGGGTEVEIK
notes: Rabbit monoclonal IgG
B4: LA-258-3 (antibody, V domains shown)
VH: B3 VH
VL: ELVLTQTPASVEAAVGGTVTINCQASQSISNLLAWYQQKPGQPPKVLIYKASTLASGVPSRFKGSGSGTDFTLTISDLECADAATYYCQANNGGSDNNFGGGTEVVVKA
notes: Rabbit monoclonal IgG
B5: LA-151 (antibody, V domains shown)
VH: SSSVEESGGRLVTPGTPLTLTCTVSGFSLGSYAMGWVRQGPGKGLEWIGAVYGTTGYIYFATWAKGRFTISKTSTTVDLKITSPTTEDTATYFCARGYLTDSIANGFGVWGPGTLVTVSS
VL: ELDLTQTPASVSEPVGGTVTIKCQASQTITNRYLAWYQQKPGQPPKLLIYQSSKLASGVSSRFKGSGSGTDFTLTISDLECADAATYYCQCTDYGSTYLGTFGGGTEVEIK
notes: Rabbit monoclonal IgG
B6: LA-101 (antibody, V domains shown)
VH: EQSVEESGGRLVTPGTPLTLTCTVSGFSLSSFHMCWVRQAPGKGLEYIGIIYPGGSTGYANWAKGRFTVSKASNTVDLKISSPTTEDTATYFCARVNYGDWINGMDLWGPGTLVTISS
VL: ELDMTQTPASVSEPVGGTVTIKCQASQSIGSNLAWYQQKPGQRPKLLIYKASTLASGVPSRFKGSGSGTDFTLTISDLECADAASYYCQQAYWSGNVDNVFGGGTEVEIK
notes: Rabbit monoclonal IgG
B7: LA-87 (antibody, V domains shown)
VH: QSVKESGGRLVTPGGSLTLTCTVSGFSLSNYNIQWVRQAPGKGLEWIGFISPAGNGYYASWAKGRFTISKASSTTVELKMTSLTASDTATYFCARHWDLWGPGTLVTISS
VL: ELVLTQTASSVSAAVGGTVTISCQSSQSVYSNYLSWFQQKPGQPPKELVYWTSTLQSGVPSRFSGSGSGTQFTLTISDLECDDAATYYCLGGYSGWFYAFGGGTEVVVK
notes: Rabbit monoclonal IgG; also called mAb LA-87
B8: LA-95 (antibody, V domains shown)
VH: EQSLKESGGRLVTPGGSLTLTCTASGFDINNYNIQWVRQAPGKGLEWIGFISPAGNEYSATWAKGRFTIYKTSSTTVELKMTSLTASDTATYFCARHWDSWGPGTLVTISS
VL: B7 VL with L4M, A8E, S10P, Y33R, W96N, F97I, A99V, V107E, V108I
notes: Rabbit monoclonal IgG; also called mAb LA-95
B9: LA-222 (antibody, V domains shown)
VH: EQSVEESGGDLVKPGASLTLTCTASGFSFTYWICWVRQAPGKGLEWIACIYAGSSGDTYYASWAKGRFTISKTSSTTVTLQMTSLTAADTATYFCARSPDYVAWGYDLWGPGTRVTVSS
VL: ELVLTQTPASVSAAVGGTVTINCQASQSIGTNLVWYQQKPGQPPKLLFYYASTLASGVPSRFRGSRSGTEYTLTISDLECADAATYYCQCIYYGGNYGHTFGGGTEVVVK
notes: Rabbit monoclonal IgG
B10: LA-64 (antibody, V domains shown)
VH: EQSLESGGGLITPGGTLTLTCTASGFTVTRYYMNWVRQAPGKGLEWIGYIYASSKTYYANWAKGRFTISKTSTTVDLKMTSLTAEDTGTYFCARGGVGNSGLNLDLWGPGTLVTISS
VL: ELVLTQTPASVSEPVGGTVTIKCQASQSIGSWLAWYQQKPGQPPKLLIYQASRLASGVSSRFGGSGSGTEFTLTISDLECADAATYYCQQAEYSGDVENTFGGGTEVVVK
notes: Rabbit monoclonal IgG; also called mAb LA-64
B11: LA-219 (antibody, V domains shown)
VH: B10 VH with L4V
VL: B10 VL with V3D, L4M
notes: Rabbit monoclonal IgG; Called a potential antagonist antibody
B12: LA-63 (antibody, V domains shown)
VH: EQSVEESGGRLVAPGGSLTLTCTVSGFSLSSYAMSWVRQAPGKGLEWIGVMYNSGSAYYASWAKGRFTISRTSTTVDLKVTSLTTEDTATYFCGRGGSNSAWGDDLWGPGTLVTVSS
VL: ELDMTQTPASVSEPVGGTVTIKCQASQSISIRYFSWYQQKPGQPPKLLIYGASTLASGVPSRFKGSGSGTDFTLTISDLECADAATYYCQDSNYNSNYFGAFGGGTEVVVK
notes: Rabbit monoclonal IgG; also called mAb LA-63
B13: LA-141 (antibody, V domains shown)
VH: QSLEESGGRLVKPDESLTLTCTVSGFSLSSNAMSWVRQAPGKGLEWIGYIYGDGRTFYANWAKGRITISRTSTTVDLKMTSLRTEDTATYFCVKSLILWGPGTLVTISS
VL: ELDMTQTPSPVSAAVGGTVTINCQSSHSVYNANQLYWYQQKPGQPPKLLIYDASTLASGVPSRFKGSGSGTQFTLTISGVQCDDAATYYCLGEYSGNIYVFGEGTEVEIN
notes: Rabbit monoclonal IgG
B14: LA-155 (antibody, V domains shown)
VH: EQSLEESGGDLVKPEGSLTLTCTASGFSFNSNYWICWVRQTPGKGLEWIGCIYSGSSGDTYYASWAKGRFTISKTSSTTVTLQMTSLTAADTATYFCARGADYVYWSYGLWGPGTLVTISS
VL: ELVLTQTPASVSAAVGGTLTIKCQASETIGTNLAWYQQKPGQPPKLLIYLASYLASGVSSRFKGSRSGTEFTLTISDLDCDDAATYYCQSTHFGNGHTFGGGTEVVVK
notes: Rabbit monoclonal IgG
B15: LA-82 (antibody, V domains shown)
VH: EQSLEESGGDLVKPGASLTLACTASGFSFSDGYYMCWVRQAPGKGLEWIGCIHSSSGSIYYASWAKGRFTISKTSSTMVTLQMSSLTAADTATYFCARDSESYGYNPCELWGPGTLVTISS
VL: ELVMTQTPASVSEAVGGTVTIKCQASQTISNYLAWYQQKPGQRPKLLIYAASSLASGVSSRFRGSRSGTEYTLTITDLECDDAATYYCQCTYYGTTYIGGAFGGGTEVEIK
notes: Rabbit monoclonal IgG; also called mAb LA-82
B16: LA-117 (antibody, V domains shown)
VH: QSVKESGGDLVKPGASLTLACTASGFSFSDGYYMCWVRQAPGKGLEWIGCIHSSSGSIYYASWAKGRFTISKTSSTMVTLQMSSLTAADTATYFCARDSESYGYNPCELWGPGTLVTISS
VL: B15 VL with V3D, M4L, I98V, V108L
notes: Rabbit monoclonal IgG
B17: LA-252 (antibody, V domains shown)
VH: EQSVEESGGRLVTPGTPLTLTCTASGFTISDYHMCWVRQAPGKGLEWIGLIRASHSTAYASWANGRFTISRTSTTVDLKITSPTSEDTATYFCARYGGSGIGCNLWGPGTLVTISS
VL: ELVLTQTPASVSEPVGGTVTIKCQASQSIDSNLAWYQQKPGQPPKQLIYAVSNLASGVPSRFKGSGSGTEFTLTISDLECADAASYYCECTYYGNSYVGGFGGGTEVEIK
notes: as for B11
B18: LA-235 (antibody, V domains shown)
VH: SSSVEESEGRLVTPGTPLTLTCTVSGFSLSSYTMGWVRQAPGEGLEWIGTTSNDGSTYYASWAKGRFTISKTSSTTVDLMMTSLTTEDTATYFCVRGTNIRSLWGPGTLVTISS
VL: ELVMTQTPASVEAAVGGTVTIKCQASQSIGSNLAWYQQKPGQPPKLLIYLASALASGVSSRFKGSGSGSDFTLTISDLECADAATYYCQCTYGSSNNNNYGDPFGGGTEVEIK
notes: Rabbit monoclonal IgG; Called an antagonist antibody

Target: T1, recombinant LAIR1
Assay: Octet, antibody on protein A sensor, recombinant LAIR1 in solution

| binding | Binder |
| --- | --- |
| binds | B1 |
| binds | B2 |
| binds | B3 |
| binds | B4 |

target: T2, human LAIR1 extracellular domain (ECD) protein with 6 HIS tag at the C-terminus (human); assay: ELISA

| binding | Binder |
| --- | --- |
| binds | B5 |
| binds | B6 |
| binds | B7 |
| binds | B8 |
| binds | B9 |
| binds | B10 |
| binds | B11 |
| binds | B12 |
| binds | B1 |
| binds | B13 |
| binds | B14 |
| binds | B15 |
| binds | B16 |
| binds | B2 |
| binds | B17 |
| binds | B18 |
| binds | B3 |
| binds | B4 |

target: T2, human LAIR1 extracellular domain (ECD) protein with 6 HIS tag at the C-terminus (human); assay: ELISA, LAIR1 ECD coated

| binding | Binder |
| --- | --- |
| binds | B5 |
| binds | B6 |
| binds | B7 |
| binds | B8 |
| binds | B9 |
| binds | B10 |
| binds | B11 |
| binds | B12 |
| binds | B1 |
| binds | B13 |
| binds | B14 |
| binds | B15 |
| binds | B16 |
| binds | B2 |
| binds | B17 |
| binds | B18 |
| binds | B3 |
| binds | B4 |
